# Experimental data from US7521589B2, “Developmental animal model of temporal lobe epilepsy” (University of Prince Edward Island, priority 2003, dated 2009).
# At least one compound was matched to its structure with a doubt left.
# Tests used:
# Type in all cases: in vivo, rat
# Sprague Dawley rats [1] = experiment: NIS-L syndrome during Morris Water Maze (MWM) testing; conditions: 5 or 20 μg/kg PND 8-14, tested PND 120
# Protocol: Within 24 hr of birth, offspring of untimed-pregnant Sprague Dawley rats (Charles River Laboratories, St. Constant, PQ) were culled to 10 pups/litter (5 males and 5 females). […] These doses are well below those normally required to induce toxicity in animals of this age (Doucette, T. A. et al., Neurotox. Teratol. [2003] 25:473-479, and Doucette, T. A., et al., Neurotox. Teratol. [2000] 22:863-869). Pups were assessed daily until weaning (on PND 22) for overt signs of toxicity, and all pre- and post-weaning testing was conducted with the experimenter blind to treatment. All procedures were conducted in accordance with the guidelines of the Canadian Council on Animal Care. […] Rats received no additional drug treatment after PND 14. On PND 120, animals were tested for spatial learning and memory in the Morris Water Maze (MWM) (8 trials/day over 6 consecutive days), using a standard reversal procedure (McNamara, R. K. and Skelton, R. W., Brain Res. Brain Res. Rev. [1993] 18:33-49). […]
# The Morris Water Maze (MWM) consisted of a circular tank measuring 1.5 m in diameter. […] A video camera was mounted above the center of the pool and all performance was recorded for subsequent analyses. […] Escape latencies and inter-trial behaviour was recorded by observers blind to experimental treatment.
# Sprague Dawley rats [2] = experiment: NIS-L during at least one of three behavioural tests
# BDNF mRNA = experiment: Hippocampal BDNF mRNA expression by in situ hybridization; conditions: 20 μg/kg PND 8-14, PND 480
# NPY mRNA = experiment: Hippocampal NPY mRNA expression by in situ hybridization; conditions: 20 μg/kg PND 8-14, PND 480
# circulating oxytocin = experiment: Serum oxytocin by radioimmunoassay; conditions: 20 μg/kg PND 8-14, 16 month old rats, F(1,28)=15.41, p<0.05
smiles,measurement,setting,value
"C/C(=C/C=C/[C@@H](C)C(=O)O)[C@H]1CN[C@H](C(=O)O)[C@H]1CC(=O)O [DOM, domoic acid]",proportion of rats exhibiting NIS-L syndrome in MWM,"Sprague Dawley rats [1]; female rats, X^2(2)=9.63, p<0.01",significant proportion
same,proportion of rats exhibiting NIS-L syndrome in MWM,"Sprague Dawley rats [1]; male rats, X^2(2)=6.46, p<0.05",significant proportion
same,overall proportion exhibiting NIS-L during at least one of three behavioral tests,"Sprague Dawley rats [2]; female rats, group marked by asterisk (differs from saline and 5 DOM), X^2(1)=16.0, p<0.01",significant difference from saline
same,overall proportion exhibiting NIS-L during at least one of three behavioral tests,"Sprague Dawley rats [2]; male rats, 5 μg/kg PND 8-14, X^2(1)=9.60, p<0.01",significant differences from saline
same,overall proportion exhibiting NIS-L during at least one of three behavioral tests,"Sprague Dawley rats [2]; male rats, 20 μg/kg PND 8-14, X^2(1)=16.0, p<0.01",significant differences from saline
same,BDNF gene expression relative to saline controls,"BDNF mRNA; CA1 region, F(1,10)=7.88, p<0.05",significant elevation
same,BDNF gene expression relative to saline,"BDNF mRNA; dentate gyrus, F(1,10)=4.74, p=0.055",approached significance
same,hippocampal NPY mRNA expression,NPY mRNA; CA1 region,No group differences
same,hippocampal NPY mRNA expression,NPY mRNA; dentate gyrus,No group differences
same,circulating oxytocin relative to saline controls,circulating oxytocin,significant elevation
